Test results as given in article doi:10.1101/2024.03.06.583600.
Results are given in words; binding and its absence hold for the method and conditions named. In cells and extracts the contact can be indirect. Some binding calls cover weakened binding; strength is not graded here.

Chains of the proteins cited; added tags and fusions are not shown.
UniProt Q05397: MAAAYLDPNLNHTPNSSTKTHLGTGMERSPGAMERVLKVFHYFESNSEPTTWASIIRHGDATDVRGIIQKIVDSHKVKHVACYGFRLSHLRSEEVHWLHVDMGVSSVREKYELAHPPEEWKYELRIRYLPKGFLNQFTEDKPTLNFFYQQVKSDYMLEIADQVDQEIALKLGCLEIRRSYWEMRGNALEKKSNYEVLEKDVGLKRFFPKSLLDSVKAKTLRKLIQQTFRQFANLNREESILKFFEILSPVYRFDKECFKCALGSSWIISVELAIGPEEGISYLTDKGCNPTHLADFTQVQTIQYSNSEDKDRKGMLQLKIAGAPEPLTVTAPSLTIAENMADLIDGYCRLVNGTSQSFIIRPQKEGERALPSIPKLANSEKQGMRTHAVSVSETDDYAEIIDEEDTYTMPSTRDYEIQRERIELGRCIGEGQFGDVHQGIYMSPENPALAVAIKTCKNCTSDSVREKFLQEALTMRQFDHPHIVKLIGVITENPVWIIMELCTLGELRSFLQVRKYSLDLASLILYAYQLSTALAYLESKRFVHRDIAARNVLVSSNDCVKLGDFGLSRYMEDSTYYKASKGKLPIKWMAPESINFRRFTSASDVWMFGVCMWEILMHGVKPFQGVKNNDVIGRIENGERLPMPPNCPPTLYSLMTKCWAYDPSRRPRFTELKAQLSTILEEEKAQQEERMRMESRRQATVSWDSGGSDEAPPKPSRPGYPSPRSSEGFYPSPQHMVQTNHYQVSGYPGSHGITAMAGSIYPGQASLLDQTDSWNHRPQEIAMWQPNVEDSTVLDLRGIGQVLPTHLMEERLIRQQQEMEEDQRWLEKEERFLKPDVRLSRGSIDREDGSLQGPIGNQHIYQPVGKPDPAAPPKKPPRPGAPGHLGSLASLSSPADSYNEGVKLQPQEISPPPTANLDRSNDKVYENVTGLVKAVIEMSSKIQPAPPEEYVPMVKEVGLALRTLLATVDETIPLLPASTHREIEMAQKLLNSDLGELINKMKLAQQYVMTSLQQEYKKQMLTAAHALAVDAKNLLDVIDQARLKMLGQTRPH

Target: T1, human cell-division cycle 14A phosphatase (CDC14A) (human (endogenous in CASMCs)) (UniProt Q9UNH5)
T1 sequence: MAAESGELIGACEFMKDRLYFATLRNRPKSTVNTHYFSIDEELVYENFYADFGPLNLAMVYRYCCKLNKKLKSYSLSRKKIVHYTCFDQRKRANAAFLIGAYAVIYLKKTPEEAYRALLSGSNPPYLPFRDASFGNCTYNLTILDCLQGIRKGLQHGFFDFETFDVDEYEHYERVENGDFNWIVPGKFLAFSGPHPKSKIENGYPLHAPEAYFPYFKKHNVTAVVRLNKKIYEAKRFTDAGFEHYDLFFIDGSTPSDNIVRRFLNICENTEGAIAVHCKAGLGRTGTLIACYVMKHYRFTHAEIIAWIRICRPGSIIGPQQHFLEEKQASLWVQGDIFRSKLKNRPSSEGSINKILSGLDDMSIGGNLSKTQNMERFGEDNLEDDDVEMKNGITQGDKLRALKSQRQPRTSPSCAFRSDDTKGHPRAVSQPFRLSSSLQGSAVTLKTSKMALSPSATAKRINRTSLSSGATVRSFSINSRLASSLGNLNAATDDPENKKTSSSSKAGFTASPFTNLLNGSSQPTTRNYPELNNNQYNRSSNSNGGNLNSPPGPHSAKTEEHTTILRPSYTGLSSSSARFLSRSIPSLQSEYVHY
Experiment: proximity ligation

focal adhesion kinase (FAK) (from UniProt Q05397 1-1052) (enzyme)
binding: binds

focal adhesion kinase phosphorylated at Tyr397 (FAK-pY397) (from UniProt Q05397 1-1052) (enzyme)
binding: binds
